Reference: US8552007B2, “Mesoionic pesticides” (E.I. du Pont de Nemours and Company, priority 2008, dated 2013)
Where a name gives a salt, the structure may show the parent alone. Read-outs that look alike come from different tables or passages of the source. Some results were stated once for a whole list of compounds, not compound by compound. For at least one compound, name, drawing or mass did not settle the structure.

Legend:
Assay type in all cases: in vivo
[1] = tested on: potato leafhopper (Empoasca fabae); conditions: Soleil bean plant, 6 days
[2] = tested on: fall armyworm (Spodoptera frugiperda); assay: Test B: control of fall armyworm, foliar spray on pre-infested maize plant; conditions: sprayed at 250 ppm, very good to excellent control
[3] = tested on: diamondback moth (Plutella xylostella); assay: Test A: control of diamondback moth, foliar spray on pre-infested radish plant; conditions: sprayed at 250 ppm, 6 days at 25° C., very good to excellent control

| SMILES | mortality ([1]; sprayed at 250 ppm) [%] | control efficacy: feeding damage (40% or less feeding damage and/or 100% mortality) [2] [%] | control efficacy: feeding damage (40% or less feeding damage and/or 100% mortality) [3] [%] | mortality ([1]; sprayed at 50 ppm) [%] |
| --- | --- | --- | --- | --- |
| O=c1c(-c2cccc(OC(F)(F)F)c2)c([O-])[n+](CC2CC2(F)F)c2ccccn12 (stereo not drawn) [Compound 484] | ≥ 80 | ≤ 40 | ≤ 40 | – |
| O=c1c(-c2ccc(F)c(-c3ccc(Cl)nc3)c2)c([O-])[n+](Cc2cnc(Cl)s2)c2ccccn12 [Compound 541] | – | ≤ 40 | ≤ 40 | ≥ 80 |
| CCC[n+]1c([O-])cc(=O)n2ccccc21 [Compound 609, 2-hydroxy-4-oxo-1-propyl-4H-pyrido[1,2-a]-pyrimidinium inner salt] | ≥ 80 | ≤ 40 | ≤ 40 | ≥ 80 |
| O=c1c(-c2cc(Br)cc(OC(F)(F)F)c2)c([O-])[n+](Cc2ccc(Cl)nc2)c2ccccn12 [Compound 55] | ≥ 80 | ≤ 40 | ≤ 40 | ≥ 80 |
| O=c1c(-c2cc(Br)cc(OC(F)(F)F)c2)c([O-])[n+](Cc2cnc(Cl)s2)c2ccccn12 [Compound 491] | – | ≤ 40 | ≤ 40 | ≥ 80 |
| COc1ccc(-c2c([O-])[n+](Cc3cnc(Cl)s3)c3ccccn3c2=O)cc1 [Compound 49] | ≥ 80 | ≤ 40 | ≤ 40 | ≥ 80 |
| O=c1c(-c2cc(Br)cc(C(F)(F)F)c2)c([O-])[n+](CC(F)(F)F)c2ccccn12 [Compound 189] | – | ≤ 40 | ≤ 40 | ≥ 80 |
| O=c1c(-c2cc(C(F)(F)F)cc(Cl)c2F)c([O-])[n+](Cc2ccc(Cl)nc2)c2ccccn12 [Compound 652] | – | ≤ 40 | ≤ 40 | ≥ 80 |
| O=c1c(-c2cccc(Br)c2)c([O-])[n+](CC(F)(F)F)c2ccccn12 [Compound 1] | ≥ 80 | ≤ 40 | ≤ 40 | ≥ 80 |
| O=c1c(-c2cc(Br)cc(C(F)(F)F)c2)c([O-])[n+](Cc2ccc(Cl)nc2)c2ccccn12 [Compound 93] | ≥ 80 | ≤ 40 | ≤ 40 | ≥ 80 |
| O=c1c(-c2ccc(F)cc2)c([O-])[n+](Cc2cnc(Br)s2)c2ccccn12 [Compound 624] | – | ≤ 40 | ≤ 40 | ≥ 80 |
| COc1ccc(-c2c([O-])[n+](Cc3cnc(Cl)s3)c3ccccn3c2=O)cc1F [Compound 500] | – | ≤ 40 | ≤ 40 | ≥ 80 |
| CCC[n+]1c([O-])c(-c2cccc(OC(F)(F)F)c2)c(=O)n2ccccc21 [Compound 8] | ≥ 80 | ≤ 40 | ≤ 40 | – |
| O=c1c(-c2ccccc2)c([O-])[n+](Cc2ccc(Cl)nc2)c2ccccn12 [Compound 59, 1-[(6-chloro-3-pyridinyl)methyl]-2-hydroxy-4-oxo-3-phenyl-4H-pyrido[1,2-a]pyrimidinium inner salt] | – | ≤ 40 | ≤ 40 | – |
| O=c1c(-c2cccc(-c3ccc(Br)nc3)c2)c([O-])[n+](Cc2cnc(Cl)s2)c2ccccn12 [Compound 616] | – | ≤ 40 | ≤ 40 | – |
| O=c1c(-c2cccc(OC(F)(F)F)c2)c([O-])[n+](Cc2cnc(Cl)c(Cl)c2)c2ccccn12 [Compound 436] | – | ≤ 40 | ≤ 40 | – |
| COc1ccc(-c2c([O-])[n+](Cc3cnc(Cl)s3)c3ccccn3c2=O)cc1Br [Compound 276] | – | ≤ 40 | ≤ 40 | – |
| O=c1c(-c2cccc(-c3ccc(Cl)nc3)c2)c([O-])[n+](Cc2cnc(Cl)s2)c2ccccn12 [Compound 530] | – | ≤ 40 | ≤ 40 | – |
| O=c1c(-c2cccc(-c3ccc(Cl)nc3)c2)c([O-])[n+](Cc2ccc(Cl)nc2)c2ccccn12 [Compound 524] | – | ≤ 40 | ≤ 40 | – |
| O=c1c(-c2ccccc2OC(F)(F)F)c([O-])[n+](Cc2cnc(Cl)s2)c2ccccn12 [Compound 270] | – | ≤ 40 | ≤ 40 | – |

| SMILES | mortality ([1]; sprayed at 250 ppm) [%] | control efficacy: feeding damage (40% or less feeding damage and/or 100% mortality) [2] [%] | control efficacy: feeding damage (40% or less feeding damage and/or 100% mortality) [3] [%] | mortality ([1]; sprayed at 50 ppm) [%] |
| --- | --- | --- | --- | --- |
| O=c1c(-c2cccc(-c3ccc(F)nc3)c2)c([O-])[n+](Cc2ccc(Cl)nc2)c2ccccn12 [Compound 525] | – | ≤ 40 | ≤ 40 | – |
| CC(c1ccc(Cl)nc1)[n+]1c([O-])c(-c2cccc(OC(F)(F)F)c2)c(=O)n2ccccc21 (stereo not drawn) [Compound 272] | – | ≤ 40 | ≤ 40 | – |
| C[Si](C)(C)c1cccc(-c2c([O-])[n+](Cc3ccc(Cl)nc3)c3ccccn3c2=O)c1 [Compound 427] | – | ≤ 40 | ≤ 40 | – |
| COc1cc(Br)cc(-c2c([O-])[n+](Cc3cnc(Cl)s3)c3ccccn3c2=O)c1 [Compound 179] | – | ≤ 40 | ≤ 40 | – |
| O=c1c(-c2cc(Br)cc(OC(F)(F)F)c2)c([O-])[n+](Cc2cccnc2)c2ccccn12 [Compound 103] | – | ≤ 40 | ≤ 40 | – |
| O=c1c(-c2cc(Cl)cc(Cl)c2)c([O-])[n+](CC(F)(F)F)c2ccccn12 [Compound 15] | – | ≤ 40 | ≤ 40 | – |
| O=c1c(-c2cccc(OC(F)(F)F)c2)c([O-])[n+](CCC(F)C(F)(F)Cl)c2ccccn12 (stereo not drawn) [Compound 22] | – | ≤ 40 | ≤ 40 | – |
| O=c1c(-c2cccc(C(F)(F)F)c2)c([O-])[n+](CCC(F)C(F)(F)Cl)c2ccccn12 (racemic) [Compound 372] | – | ≤ 40 | ≤ 40 | – |
| O=c1c(-c2cc(Br)cc(C(F)(F)F)c2)c([O-])[n+](CC2CC2)c2ccccn12 [Compound 188] | – | ≤ 40 | ≤ 40 | – |
| COc1ccc(-c2c([O-])[n+](Cc3cnc(Cl)s3)c3ccccn3c2=O)cc1-c1ccc(C(F)(F)F)nc1 [Compound 685] | – | ≤ 40 | ≤ 40 | – |
| O=c1c(-c2cccc(OC(F)(F)F)c2)c([O-])[n+](Cc2cnc(Br)s2)c2ccccn12 [Compound 625] | – | ≤ 40 | ≤ 40 | – |
| O=c1c(-c2cc(Br)cc(OC(F)(F)F)c2)c([O-])[n+](Cc2cnc(Cl)s2)c2c(F)cccn12 [Compound 683] | – | ≤ 40 | ≤ 40 | – |
| O=c1c(-c2cc(C(F)(F)F)cc(C(F)(F)F)c2)c([O-])[n+](Cc2ccc(Cl)nc2)c2ccccn12 [Compound 440] | – | ≤ 40 | ≤ 40 | – |
| CC([n+]1c([O-])c(-c2cc(Br)cc(OC(F)(F)F)c2)c(=O)n2ccccc21)C(F)(F)F (stereo not drawn) [Compound 253] | – | ≤ 40 | ≤ 40 | – |
| O=c1c(-c2cccc(OC(F)(F)F)c2)c([O-])[n+](Cc2cnc(Cl)s2)c2c(C(F)(F)F)cccn12 [Compound 754] | – | ≤ 40 | ≤ 40 | – |
| O=c1c(-c2cccc(I)c2)c([O-])[n+](Cc2cnc(Cl)s2)c2ccccn12 [Compound 275] | – | ≤ 40 | ≤ 40 | – |
| O=c1c(-c2cccc(-c3ccc(F)nc3)c2)c([O-])[n+](Cc2cnc(Cl)s2)c2ccccn12 [Compound 542] | – | ≤ 40 | ≤ 40 | – |
| O=c1c(-c2cc(Br)cc(OC(F)(F)F)c2)c([O-])[n+](Cc2cnc(Cl)s2)c2sccn12 [Compound 145] | – | ≤ 40 | ≤ 40 | – |
| O=c1c(-c2cc(C(F)(F)F)cc(C(F)(F)F)c2)c([O-])[n+](CC(F)(F)F)c2ccccn12 [Compound 312] | – | ≤ 40 | ≤ 40 | – |
